Results reported in PubChem BioAssay AID194 (DTP/NCI, 2004).
The list does not hold the whole screen: it gathers tests that were run many times, whatever their T/C, doses with no T/C, and many T/C values between a quarter and a half above the control. Further doses and runs are listed elsewhere. T/C gives the treated animals as a percentage of the vehicle group. Some entries give survivors of the animals treated and no T/C: the source files T/C as zero there, which appears to mark a toxic dose or a test without result, not a measured value. Some survivor counts are full or nearly so, which does not show that the dose was tolerated: the source hardly ever lists a survival T/C far under the control, and the zero likely stands for such cases as well. Counts of survivors are from the toxicity check (mostly the fifth day) where no day follows; animals may have died later. Schedules are NCI's codes, read here as Q, the interval in days (D) or hours (H), X, the number of doses. Some entries hold several experiments; the values are given in rising order. For survival time, the PubChem record calls one and a half times the control and up active, and a quarter to a half above the control has no call in these data; cut-offs in other NCI protocols can differ. Some T/C values carry the count of animals alive at the toxicity check (mostly the fifth day); without a count, all were alive then.

Test system: BDF1 mice, B16 melanoma s.c., survival/tumor T/C
Assay: NCI In Vivo Anticancer Drug Screen. Data for tumor model B16 Melanoma (subcutaneous) in B6D2F1 (BDF1) mice
Settings: T/C endpoint: median survival time, higher T/C = longer survival
Experimental: The antitumor activity of compounds was measured in mice bearing transplantable tumors. Survival or tumor size were measured and the results are expressed as the measurement made in the treated group (T) divided by the measurement made in the vehicle treated control group (C). The tumor model used in this assay is B16 Melanoma (subcutaneous) in B6D2F1 (BDF1) mice

[1] = dose: 2.0 mg/kg/injection, schedule: Q01DX009 (ip), vehicle: saline with Tween-80
[2] = dose: 0.25 mg/kg/injection, schedule: Q01DX009 (ip), vehicle: saline
[3] = dose: 0.5 mg/kg/injection, schedule: Q01DX009 (ip), vehicle: saline

Q: Which survivor count (dose: 1.0 mg/kg/injection, schedule: Q01DX001 (oral), vehicle: saline with Tween-80) does the source give for `O=C(NP(=O)(N1CC1)N1CC1)c1cc(I)ccc1I` here?
A: 10 of 10

Q: What about the survivor count (dose: 2.0 mg/kg/injection, schedule: Q01DX001 (oral), vehicle: saline with Tween-80) of the same compound?
A: 10 of 10

Q: What about the survivor count (dose: 2.0 mg/kg/injection, schedule: Q02DX009 (ip), vehicle: saline with Tween-80) of the same compound?
A: 9 of 10

Q: What about the T/C (dose: 2.0 mg/kg/injection, schedule: Q02DX009 (ip), vehicle: saline) of the same compound?
A: 147 % of control

Q: What about the T/C (dose: 32.0 mg/kg/injection, schedule: Q02DX009 (ip), vehicle: saline with Tween-80) of the same compound?
A: 135 % of control

Q: What about the survivor count (dose: 64.0 mg/kg/injection, schedule: Q02DX009 (ip), vehicle: saline with Tween-80) of the same compound?
A: 10 of 10

Q: What about the survivor count (dose: 64.0 mg/kg/injection, schedule: Q02DX009 (ip), vehicle: saline) of the same compound?
A: 10 of 10

Q: What about the survivor count (dose: 128.0 mg/kg/injection, schedule: Q01DX001 (oral), vehicle: saline with Tween-80) of the same compound?
A: 10 of 10

Q: What about the survivor count (dose: 128.0 mg/kg/injection, schedule: Q02DX009 (ip), vehicle: saline with Tween-80) of the same compound?
A: 10 of 10

Q: What about the survivor count (dose: 128.0 mg/kg/injection, schedule: Q02DX009 (ip), vehicle: saline) of the same compound?
A: 10 of 10

Q: And the T/C (dose: 256.0 mg/kg/injection, schedule: Q01DX001 (oral), vehicle: saline with Tween-80)?
A: 126 % of control [9 of 10 alive]

Q: What about the survivor count (dose: 256.0 mg/kg/injection, schedule: Q02DX009 (ip), vehicle: saline with Tween-80) of the same compound?
A: 9 of 10

Q: What about the survivor count (dose: 256.0 mg/kg/injection, schedule: Q02DX009 (ip), vehicle: saline) of the same compound?
A: 8 of 10

Q: What about the survivor count (dose: 512.0 mg/kg/injection, schedule: Q02DX009 (ip), vehicle: saline with Tween-80) of the same compound?
A: 9 of 10

Q: And the survivor count (dose: 512.0 mg/kg/injection, schedule: Q02DX009 (ip), vehicle: saline)?
A: 9 of 10

Q: For `COc1cc2c[n+](C)c3c4cc5c(cc4ccc3c2cc1OC)OCO5`, which survivor count (dose: 25.0 mg/kg/injection, schedule: Q01DX009 (ip), vehicle: Klucel (hydroxypropylcellulose) (HPC)) is on record?
A: 5 of 10

Q: Which results are given for `O=c1[nH]cc(N(CCCl)CCCl)c(=O)[nH]1`?
A: survivor count (dose: 1.0 mg/kg/injection, schedule: Q01DX009 (ip), vehicle: saline with Tween-80): 10 of 10; survivor count [1]: 9 of 10; survivor count (dose: 4.0 mg/kg/injection, schedule: Q01DX009 (ip), vehicle: saline with Tween-80): 5 of 10

Q: Which survivor count (dose: 2.8 micrograms/kg/injection, schedule: Q01DX009 (ip), vehicle: Klucel (hydroxypropylcellulose) (HPC)) does the source give for `CC(C)(C)c1ccc(CN2CCN(C(c3ccccc3)c3ccc(Cl)cc3)CC2)cc1` (configuration not stated) here?
A: 9 of 10

Q: And the survivor count (dose: 5.6 micrograms/kg/injection, schedule: Q01DX009 (ip), vehicle: Klucel (hydroxypropylcellulose) (HPC))?
A: 10 of 10

Q: And the survivor count (dose: 11.2 micrograms/kg/injection, schedule: Q01DX009 (ip), vehicle: Klucel (hydroxypropylcellulose) (HPC))?
A: 10 of 10

Q: What does the source list for `c1ccc(-c2csc3c4ccccc4c4ccccc4[n+]23)cc1`?
A: T/C (dose: 2.0 mg/kg/injection, schedule: Q01DX009 (ip), vehicle: suspension in saline): 128 % of control [9 of 10 alive]; T/C (dose: 4.0 mg/kg/injection, schedule: Q01DX009 (ip), vehicle: suspension in saline): 128 % of control

Q: `CCOC(=O)C1CCC(NC(=O)N(CCCl)N=O)CC1` (configuration not stated) was tested. Which survivor count (dose: 59.0 mg/kg/injection, schedule: Q01DX001 (ip), vehicle: gum acacia) did it give?
A: 6 of 10

Q: For `O=C1C=CC(=O)O1` (tested in a mixture with another compound), which T/C (dose: 400.0 mg/kg/injection, schedule: Q01DX009 (ip), vehicle: other) is on record?
A: 133 % of control [7 of 10 alive]

Q: How did the T/C (dose: 10.0 mg/kg/injection, schedule: Q04DX002 (ip), vehicle: saline with Tween-80) turn out when `CCCCC[C@H](O)/C=C/[C@@H]1[C@@H](C/C=C\CCCC(=O)O)[C@@H](O)C[C@H]1O` was run?
A: 139 % of control

Q: And the survivor count (dose: 20.0 mg/kg/injection, schedule: Q04DX002 (ip), vehicle: saline with Tween-80)?
A: 2 of 3

Q: And the T/C (dose: 40.0 mg/kg/injection, schedule: Q04DX002 (ip), vehicle: saline with Tween-80)?
A: 139 % of control

Q: And the T/C (dose: 80.0 mg/kg/injection, schedule: Q04DX002 (ip), vehicle: saline with Tween-80)?
A: 127 % of control

Q: And the survivor count (dose: 320.0 mg/kg/injection, schedule: Q04DX002 (ip), vehicle: saline with Tween-80)?
A: 0 of 3

Q: `O=C1c2c(O)ccc(O)c2C(=O)c2c(NCCNCCO)ccc(NCCNCCO)c21` was tested. Which T/C (dose: 0.5 mg/kg/injection, schedule: Q01DX009 (ip), vehicle: saline with Tween-80) did it give?
A: 128 and 139 % of control

Q: And the T/C [1]?
A: 133 % of control

Q: What about the survivor count (dose: 4.0 mg/kg/injection, schedule: Q01DX009 (ip), vehicle: other) of the same compound?
A: 10 of 10

Q: And the survivor count (dose: 8.0 mg/kg/injection, schedule: Q01DX009 (ip), vehicle: other)?
A: 10 of 10

Q: What does the source list for `CC[C@]1(O)C[C@H]2CN(CCc3c([nH]c4ccccc34)[C@@](C(=O)OC)(c3cc4c(cc3OC)N(C=O)[C@H]3[C@@](O)(C(=O)OC)[C@H](OC(C)=O)[C@]5(CC)C=CCN6CC[C@]43[C@@H]65)C2)C1`?
A: T/C [2]: 100, 114, 122, 126, 134 % of control; survivor count [2]: 6 of 6; T/C [3]: 122 and 128 % of control; survivor count [3]: 6 of 10, 9 of 10, 6 of 6; survivor count (dose: 1.0 mg/kg/injection, schedule: Q01DX009 (ip), vehicle: saline): 3 of 6, 5 of 10, 5 of 6, 6 of 6; survivor count (dose: 2.0 mg/kg/injection, schedule: Q01DX009 (ip), vehicle: saline): 0 of 6, 4 of 6, 6 of 6

Q: How did the survivor count (dose: 16.0 mg/kg/injection, schedule: Q02DX009 (ip), vehicle: Klucel (hydroxypropylcellulose) (HPC)) turn out when `Cc1nc(N)nc(N)c1-c1ccc(Cl)c(Cl)c1` was run?
A: 12 of 12

Q: Which survivor count (dose: 7.2 mg/kg/injection, schedule: Q01DX007 (ip), vehicle: water) does the source give for `O=NN(CCCl)C(=O)NC1[C@H](O)CCC[C@@H]1O` (some centres not stated) here?
A: 5 of 10 on day 55

Q: What about the survivor count (dose: 12.0 mg/kg/injection, schedule: Q01DX007 (ip), vehicle: water) of the same compound?
A: 0 of 10 on day 55

Q: For `Cc1c2ccncc2c(C)c2c1[nH]c1ccccc12`, which T/C (dose: 28.0 mg/kg/injection, schedule: Q01DX009 (ip), vehicle: saline with Tween-80) is on record?
A: 125 % of control

Q: And the T/C (dose: 42.0 mg/kg/injection, schedule: Q01DX009 (ip), vehicle: saline with Tween-80)?
A: 140 % of control

Q: What about the survivor count (dose: 63.0 mg/kg/injection, schedule: Q01DX009 (ip), vehicle: saline with Tween-80) of the same compound?
A: 10 of 10

Q: And the T/C (dose: 123.0 mg/kg/injection, schedule: Q04DX003 (ip), vehicle: saline with Tween-80)?
A: 129 % of control

Q: What about the survivor count (dose: 184.0 mg/kg/injection, schedule: Q04DX003 (ip), vehicle: saline with Tween-80) of the same compound?
A: 10 of 10

Q: And the T/C (dose: 600.0 mg/kg/injection, schedule: Q01DX001 (ip), vehicle: saline with Tween-80)?
A: 129 % of control

Q: What does the source list for `CC1(C)N=C(N)N=C(N)N1c1ccc(OCC(=O)Nc2ccc(S(=O)(=O)F)cc2)c(Cl)c1`?
A: T/C (dose: 200.0 mg/kg/injection, schedule: Q04DX003 (ip), vehicle: saline): 125 % of control; survivor count (dose: 400.0 mg/kg/injection, schedule: Q04DX003 (ip), vehicle: saline): 6 of 6
